The assay deals with T1, TRIF (Flag- or HA-tagged) (murine) (UniProt Q80UF7).
T1 sequence: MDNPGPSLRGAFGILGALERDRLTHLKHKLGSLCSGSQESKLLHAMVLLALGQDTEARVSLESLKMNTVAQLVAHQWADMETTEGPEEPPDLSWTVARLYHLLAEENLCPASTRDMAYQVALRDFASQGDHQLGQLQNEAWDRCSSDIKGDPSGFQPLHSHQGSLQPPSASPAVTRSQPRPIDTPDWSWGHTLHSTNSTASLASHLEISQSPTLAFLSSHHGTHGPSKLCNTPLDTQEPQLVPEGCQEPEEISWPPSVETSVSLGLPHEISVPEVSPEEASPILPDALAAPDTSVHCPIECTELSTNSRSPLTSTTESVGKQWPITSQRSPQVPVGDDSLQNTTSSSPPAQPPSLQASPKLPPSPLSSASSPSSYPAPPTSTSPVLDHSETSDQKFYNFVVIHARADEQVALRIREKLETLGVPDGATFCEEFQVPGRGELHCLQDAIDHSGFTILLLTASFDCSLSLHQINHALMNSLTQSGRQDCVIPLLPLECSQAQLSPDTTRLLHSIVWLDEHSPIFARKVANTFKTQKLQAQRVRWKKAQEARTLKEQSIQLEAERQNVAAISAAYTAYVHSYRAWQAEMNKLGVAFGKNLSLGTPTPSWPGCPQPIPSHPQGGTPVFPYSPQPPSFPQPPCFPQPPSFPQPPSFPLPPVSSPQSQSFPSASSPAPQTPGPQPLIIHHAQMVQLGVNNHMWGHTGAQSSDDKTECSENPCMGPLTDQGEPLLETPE
Put plainly: co-IP; HEK293 cells transfected with the indicated plasmids for 24 hours, co-immunoprecipitation and immunoblotting with the indicated antibodies. For orientation: In western blotting, separated proteins are transferred to a membrane and probed.

No constants are given. Whether binding was seen depends on the method and setting. Binding seen in cells or lysates may run through a third protein. Binding calls can cover weak binding; strength is not graded here. Tags and fused reporters may be left off the sequences shown.

In the case of OPTN, the binding entry is on record as “binds”.

Values taken from PMC5595311.
